Source: PubChem BioAssay AID493014 (National Center for Advancing Translational Sciences (NCATS), 2011)
The list shows a part of the results. These are further read-outs of the screen, such as a control signal, another cell line or another target. No call is given for them. Compounds called inactive in the main read-out are mostly missing here. Words in brackets tell the shape of the fitted curve; partial curves, single points and poor fits give uncertain potencies.

Assay: qHTS Assay to Find Inhibitors of Chronic Active B-Cell Receptor Signaling
Settings: ABC-DLBCL IkBa-CBG/CBR reporter, luminescence ratio (green luciferase fused to IkBa over red control in TMD8 lymphoma cells), 4 h
In short: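 Doxycycline induced both beetle luciferases in TMD8 lymphoma cells; IKK-driven degradation limits the IkappaBalpha-fused green signal, while red luminescence normalises for cell number and nonspecific effects. Compounds tested up to 46 uM, 4 hrs.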

[1] = measured here: CBR red luminescence, cell number

Structure (SMILES)	AC50 [1]	AC50 (measured here: IkBa-CBG green luminescence)
COCCN1CN=C(Nc2nc(C)c3ccc(C)cc3n2)NC1	7.94 µM [falling, partial curve, poor fit]	
O=C(COc1ccccc1Cl)NC(=O)NC1CCCCC1	16.4 µM [falling, partial curve]	
Nc1ccc2nc(-c3cccc(-c4nc5ccc(N)cc5[nH]4)c3)[nH]c2c1	4.47 µM [falling, single point]	
CSCC[C@H](NC(=O)[C@H](Cc1ccccc1)n1c(=O)[nH]c2ccccc2c1=O)C(=O)N1CCC(C(=O)O)CC1	6.31 µM [falling, partial curve, poor fit]	
CSc1cccc(NC(=S)NC(=O)CCc2ccccc2)c1	15.8 µM [rising, single point]	
Cn1ccc(C(=O)N/N=C/c2ccccc2[N+](=O)[O-])n1	15.8 µM [falling, partial curve]	
COc1ccc(-n2c(C)c(C)c3c(N)ncnc32)cc1	28.2 µM [falling, single point]	
Cn1c(SCC(=O)c2ccccc2)nc2cccnc21	6.51 µM [rising, partial curve, poor fit]	
CC1(C)CC[C@]2(C(=O)O)CC[C@]3(C)C(=CC[C@@H]4[C@@]5(C)CC[C@H](O[C@@H]6O[C@H](C(=O)O)[C@@H](O)[C@H](O[C@@H]7OC[C@H](O)[C@H](O)[C@H]7O)[C@H]6O)C(C)(C)[C@@H]5CC[C@]43C)[C@@H]2C1	29.1 µM [falling, single point]	
Cc1csc(NC(=O)Nc2ccc(Cl)cc2)n1	8.91 µM [falling, partial curve, poor fit]	
O=C(CCCN1C(=O)/C(=C/c2cccc(Br)c2)SC1=S)Nc1ccccn1	2.06 µM [falling, full curve]	
COc1cccc(-c2csc3ncnc(Sc4nnnn4C)c23)c1	6.51 µM [falling, partial curve]	
O=C1C(=O)N(Cc2ccco2)C(c2cccs2)/C1=C(\O)c1cccc([N+](=O)[O-])c1 (centres undefined)	7.08 µM [rising, partial curve, poor fit]	
CCN(CC)CCOC(=O)c1ccc(NC(=O)/C=C/c2cccs2)cc1	7.31 µM [falling, partial curve]	
O=c1c(/C=N/O)coc2ccc3ccccc3c12	35.5 µM [falling, single point]	
O=[N+]([O-])c1ccc2nc(NCCCO)nc(-c3ccccc3)c2c1	10.3 µM [falling, partial curve]	
O=C(NCC(=O)N(c1cnc2ccccc2c1)C(C(=O)NC1CCCC1)c1ccncc1)c1ccco1 (centres undefined)	7.31 µM [rising, partial curve, poor fit]	
COc1ccc(C(=O)NC(=S)Nc2ccc(NC(=O)c3ccco3)cc2)cc1[N+](=O)[O-]	13 µM [rising, partial curve]	
COc1ccc(CCN2C(=O)c3[nH]nc(-c4ccccc4O)c3C2c2cccc(O)c2)cc1OC (centres undefined)	35.5 µM [falling, single point]	
COCn1c(COc2ccc3ccccc3c2)nc2ccccc21	0.411 µM [rising, full curve]	

Molecules shown so far that contain a thiophene ring, fused or not:
Structure (SMILES)	AC50 [1]	AC50 (measured here: IkBa-CBG green luminescence)
COc1cccc(-c2csc3ncnc(Sc4nnnn4C)c23)c1	6.51 µM [falling, partial curve]	
O=C1C(=O)N(Cc2ccco2)C(c2cccs2)/C1=C(\O)c1cccc([N+](=O)[O-])c1 (centres undefined)	7.08 µM [rising, partial curve, poor fit]	
CCN(CC)CCOC(=O)c1ccc(NC(=O)/C=C/c2cccs2)cc1	7.31 µM [falling, partial curve]	

Carrying on:

Structure (SMILES)	AC50 [1]	AC50 (measured here: IkBa-CBG green luminescence)
COc1ccc(COc2ccc3c(C)cc(=O)oc3c2)cc1	6.31 µM [rising, partial curve, poor fit]	
NS(=O)(=O)c1ccc(NC(=S)NCc2cccs2)cc1	20 µM [falling, single point]	
COc1ccccc1NC(=O)c1cc2ccc(O)cc2o/c1=N\O	5.01 µM [falling, partial curve, poor fit]	
CCc1nnc(NC(=O)CN2CCN(C3CCCCC3)CC2)s1	6.51 µM [rising, partial curve, poor fit]	
CC(C)CN(C(=O)COC(=O)CNC(=O)c1ccccc1)c1c(N)n(Cc2ccccc2)c(=O)[nH]c1=O	10.3 µM [rising, partial curve, poor fit]	
O=C(O)CCCn1c(=S)[nH]c2c(sc3ccc([N+](=O)[O-])cc32)c1=O	7.08 µM [falling, partial curve, poor fit]	
c1ccc(-c2nnc3n2NC(c2ccc4c(c2)OCO4)S3)cc1 (centres undefined)		6.51 µM [rising, partial curve, poor fit]
COc1cc(N=Cc2c(O)[nH]c3ccccc23)cc(OC)c1OC	7.31 µM [falling, partial curve]	
CCc1c(C)sc(NC(=S)N2CCN(CC)CC2)c1C(=O)OC	6.31 µM [rising, single point]	
CC(=O)Nc1ccc(C#Cc2ccc(NC(C)=O)cc2)cc1	14.1 µM [rising, single point]	
COc1cc(C(=O)OCC(C)=O)cc(NC(=O)c2ccco2)c1OC	20 µM [rising, single point]	
COc1cccc(-c2noc(CCC(=O)NCC3CCCO3)n2)c1 (centres undefined)	10 µM [rising, partial curve, poor fit]	
COc1ccc(OC)c(S(=O)(=O)Nc2ccc(O)c3ccccc23)c1	9.2 µM [falling, partial curve, poor fit]	
O=[N+]([O-])c1cc(Cl)cc(/C=N/NC(=S)Nc2cc(S(=O)(=O)N3CCOCC3)ccc2Cl)c1O	14.1 µM [falling, partial curve, poor fit]	
CC(=O)c1ccc(NC(=O)c2ccc([N+](=O)[O-])o2)cc1	35.5 µM [falling, single point]	
Cc1cccc(NC(=O)C(=O)C2C(=O)Nc3ccccc32)c1 (centres undefined)	8.91 µM [falling, partial curve, poor fit]	
CCSC1=N/C(=C\C=C2/Oc3ccccc3N2CC)C(=O)S1	3.55 µM [rising, partial curve, poor fit]	
Cc1cc(C)c2c(=O)[nH]c(SCC(=O)N(C)C)nc2n1	8.91 µM [falling, partial curve, poor fit]	
Cc1ccc(NC(=O)CCc2nnc3ccc(N4CCC(C)CC4)nn23)nc1	3.98 µM [rising, partial curve, poor fit]	
